Reference: PubChem BioAssay AID1259424 (University of Nebraska Medical Center, 2018)
Test: 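Find knockdowns that reproduce the expression shifts seen after KSR1 loss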 (primary screen). Cell system: human HCT116 colon cancer cells. Reagents: siRNA pool against human genes, 50 nM. Detection: 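Log2 levels of six mRNAs (branched-DNA multiplex), adjusted by two reference genes and the non-targeting median, then scored against the average KSR1 knockdown pattern as Pearson r and euclidean distance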. Scale: mean correlation with KSR1 profile and KSR1 correlation: higher = expression change more like KSR1 knockdown; mean distance from KSR1 profile: higher = expression change less like KSR1 knockdown.
In all, the deposit lists about 14,000 reagents; this is an unselected part. 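Higher correlation or smaller distance means closer resemblance to KSR1 loss; control wells, including KSR1 knockdowns, recur on many plates.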 Not stated in the record: the time to read-out.

| gene | mean correlation with KSR1 profile | mean distance from KSR1 profile | KSR1 correlation, replicate 1 | KSR1 correlation, replicate 2 | KSR1 correlation, replicate 3 |
| --- | --- | --- | --- | --- | --- |
| NSMF | 0.186 | 1.55 | 0.291 | 0.182 | -0.0138 |
| EXOC6 (exocyst complex component 6) | -0.312 | 2.54 | -0.301 | -0.297 | -0.0278 |
| ZBTB45 (zinc finger and BTB domain containing 45) | 0.85 | 0.952 | 0.936 | 0.838 | 0.464 |
| MRC1 (mannose receptor C-type 1) | 0.275 | 1.24 | 0.46 | 0.0314 | 0.328 |
| FAM53C (family with sequence similarity 53 member C) | -0.449 | 2.72 | -0.676 | -0.00957 | -0.0146 |
| PSD2 (pleckstrin and Sec7 domain containing 2) | 0.794 | 0.975 | 0.746 | 0.316 | 0.762 |
| PPP4R3B (protein phosphatase 4 regulatory subunit 3B) | -0.392 | 2.14 | 0.0864 | -0.652 | -0.526 |
| RPP14 (ribonuclease P/MRP subunit p14) | 0.0309 | 1.98 | 0.0981 | 0.0682 | 0.226 |

3 successive entries from above, for reference:
| gene | mean correlation with KSR1 profile | mean distance from KSR1 profile | KSR1 correlation, replicate 1 | KSR1 correlation, replicate 2 | KSR1 correlation, replicate 3 |
| --- | --- | --- | --- | --- | --- |
| EXOC6 (exocyst complex component 6) | -0.312 | 2.54 | -0.301 | -0.297 | -0.0278 |
| ZBTB45 (zinc finger and BTB domain containing 45) | 0.85 | 0.952 | 0.936 | 0.838 | 0.464 |
| MRC1 (mannose receptor C-type 1) | 0.275 | 1.24 | 0.46 | 0.0314 | 0.328 |

The results go on:
| gene | mean correlation with KSR1 profile | mean distance from KSR1 profile | KSR1 correlation, replicate 1 | KSR1 correlation, replicate 2 | KSR1 correlation, replicate 3 |
| --- | --- | --- | --- | --- | --- |
| SEPTIN2 (septin 2) | 0.323 | 3.19 | 0.205 | 0.414 | 0.159 |
| POP4 (POP4 ribonuclease P/MRP subunit) | 0.0264 | 1.33 | -0.0917 | 0.263 | -0.49 |
| UBE2B (ubiquitin conjugating enzyme E2 B) | -0.00319 | 1.4 | -0.0186 | -0.0908 | 0.037 |
| S100B (S100 calcium binding protein B) | 0.931 | 0.727 | 0.902 | 0.898 | 0.746 |
| AKTIP (AKT interacting protein) | 0.0322 | 1.52 | 0.138 | 0.34 | 0.0105 |
| MRPS17 (mitochondrial ribosomal protein S17) | -0.166 | 3.88 | -0.221 | -0.0586 | -0.151 |
| PTK6 (protein tyrosine kinase 6) | 0.409 | 1.55 | 0.517 | 0.58 | 0.0594 |
| NFAT5 (nuclear factor of activated T cells 5) | -0.205 | 1.95 | -0.0686 | 0.598 | -0.229 |
| PSMB10 (proteasome 20S subunit beta 10) | 0.544 | 1.52 | 0.542 | 0.535 | 0.561 |
| OR1A1 (olfactory receptor family 1 subfamily A member 1) | 0.297 | 2.8 | 0.545 | 0.278 | 0.345 |
| OR10H2 (olfactory receptor family 10 subfamily H member 2) | 0.779 | 1.41 | 0.848 | 0.873 | 0.629 |
| EMCN (endomucin) | -0.254 | 2.11 | -0.327 | 0.16 | -0.352 |
